Experimental data: PubChem BioAssay AID504786 (Drosophila RNAi Screening Center, 2011)

- Test: 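Fly genes required for HIF-dependent transcription when hypoxia is mimicked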 (primary screen)
- Cell system: Drosophila S2 cells with a stable HIF luciferase reporter
- Reagent: long dsRNA against Drosophila genes, about 0.2 µg dsRNA per well of a 384-well plate
- Timing: three days of knock-down, then 20 h of DFO before reading
- Conditions: desferrioxamine (DFO) at 100 µM, an iron chelator that mimics hypoxia, for 20 h
- Detection: 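HIF reporter luminescence in cells given 100 µM DFO for 20 h, using the mouse ldh-a hypoxia-response element, scored as per-plate z-scores; higher means greater loss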
- Reading the numbers: z-score: higher = stronger loss of HIF reporter signal
The deposit covers about 21,000 reagents; shown is an unselected part of those that have a named target and a result. 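Primary screen; positive scores mean lost reporter signal, so the sign may be inverted from the usual convention.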 Names joined by + are all predicted targets of the reagent.

gene	PubChem SID	z-score, replicate 1	z-score, replicate 2	z-score, replicate 3	z-score, replicate 4
5-HT2B (GeneID 41017)	SID104196152	-0.3	-0.5		
5-HT2B (GeneID 41017)	SID104196154	-0.4	-0.8		
Icmt (GeneID 39478)	SID104189626	-0.2	1.2		
CG12862 (GeneID 36625)	SID104185994	-0.3	-0.6		
CG9676 (GeneID 32647)	SID104199996	0.1	-0.3		
Myc (GeneID 31310)	SID104198554	4.7	2.8		
HDAC6 (GeneID 32461)	SID104200044	-0.3	-0.3		
CG14408 (GeneID 32407)	SID104199387	-0.4	-0.4		
sstn (GeneID 39643)	SID104190545	-0.1	-0.3		
CG14929 + CG4970 + CG14930	SID104182204	-0.3	-0.2		
Eno (GeneID 33351)	SID104180542	-0.4	-1.2		
RpL7 (GeneID 34352)	SID104183209	8	6.4		
CG8679 (GeneID 35395)	SID104182901	-0.3	-0.3		
CG41099 (GeneID 3355072)	SID104200841	0	-0.2		
CG41099 (GeneID 3355072)	SID104200843	-0.2	0		
CG3386 (GeneID 38081)	SID104188358	-0.3	-0.2		
numb (GeneID 34263)	SID104183376	-0.3	-0.3		
Sugb (GeneID 39314)	SID104190607	-0.1	-0.4		
CG30411 (GeneID 246600)	SID104183796	-0.2	-0.3		
CG34384 (GeneID 5740362)	SID104192436	-0.4	0		
CG34384 (GeneID 5740362)	SID104194647	-0.1	-0.5		
CG34384 (GeneID 5740362)	SID104195236	-0.4	0		
CG34384 (GeneID 5740362)	SID104196367	-0.4	-0.2		
RabX5 (GeneID 38209)	SID104188400	-0.2	-0.4		
CG17380 (GeneID 42766)	SID104195022	-0.5	-0.4		
CG33493 (GeneID 2768994)	SID104190434	-0.3	-0.1		
CG14269 (GeneID 31312)	SID104197704	-0.3	0.9		
Slc25A46b (GeneID 35081)	SID104182680	-0.3	-0.6		
CG4318 (GeneID 32266)	SID104199679	-0.3	-1		
CG5177 (GeneID 34017)	SID104182616	-0.2	-0.1		
CG10920 (GeneID 31688)	SID104197557	-0.1	-0.1		
CG32104 (GeneID 39413)	SID104189919	0	1.5		
CG32104 (GeneID 39413)	SID104189920	-0.3	-0.4		
CG15745 (retired record) (GeneID 32283)	SID104199503	-0.1	0		
bigmax (GeneID 43293)	SID104195273	-0.3	-0.7		
CG17637 (GeneID 40275)	SID104191532	-0.2	-0.6		

Ordered by “z-score, replicate 2” (highest first): some entries from above
gene	PubChem SID	z-score, replicate 1	z-score, replicate 2	z-score, replicate 3	z-score, replicate 4
Myc (GeneID 31310)	SID104198554	4.7	2.8		
Icmt (GeneID 39478)	SID104189626	-0.2	1.2		
CG9676 (GeneID 32647)	SID104199996	0.1	-0.3		
HDAC6 (GeneID 32461)	SID104200044	-0.3	-0.3		
sstn (GeneID 39643)	SID104190545	-0.1	-0.3		
CG14408 (GeneID 32407)	SID104199387	-0.4	-0.4		
CG12862 (GeneID 36625)	SID104185994	-0.3	-0.6		
5-HT2B (GeneID 41017)	SID104196154	-0.4	-0.8		

Next entries follow:
gene	PubChem SID	z-score, replicate 1	z-score, replicate 2	z-score, replicate 3	z-score, replicate 4
SPoCk (GeneID 40495)	SID104191467	-0.3	-0.1		
SPoCk (GeneID 40495)	SID104191498	0	0.2		
SPoCk (GeneID 40495)	SID104191636	-0.3	0.2		
SPoCk (GeneID 40495)	SID104191637	-0.2	-0.6		
Smurf (GeneID 36999)	SID104187433	-0.4	-0.8		
CG3556 (GeneID 31380)	SID104198101	-0.1	-0.4		
CG17059 (GeneID 50227)	SID104186446	-0.5	-0.2		
Acp53C14c (GeneID 3346203)	SID104185418	0.2	-0.1		
Rh50 (GeneID 38589)	SID104188484	-0.2	-0.3		
tfc (GeneID 38141)	SID104187745	-0.2	-0.4		
tfc (GeneID 38141)	SID104187746	6.3	2.4		
tfc (GeneID 38141)	SID104188418	0	0		
CG11585 (GeneID 32365)	SID104199202	-0.3	0		
CG14561 (GeneID 40447)	SID104191514	-0.2	-0.3		
CAP (GeneID 36084)	SID104185007	1.1	0.5		
CAP (GeneID 36084)	SID104186535	-0.2	-0.3		
CAP (GeneID 36084)	SID104186536	-0.2	-0.2		
CAP (GeneID 36084)	SID104186537	-0.3	-0.1		
CAP (GeneID 36084)	SID104186638	-0.3	0		
Crys (GeneID 34604)	SID104183086	0.1	-0.1		
Gyc76C + CG42637	SID104190972	-0.5	-1		
fd102C (GeneID 43843)	SID104196995	-0.4	-0.3		
drm (GeneID 49638)	SID104180069	-0.3	-0.3		
lili (GeneID 42956)	SID104193935	-0.1	-0.2		
HisRS (GeneID 32841)	SID104199778	0	-0.3		
ClC-b (GeneID 36381)	SID104187012	-0.2	0.3		
beg (GeneID 39910)	SID104190715	-0.2	-0.1		
Tpl94D (GeneID 318658)	SID104193385	0.5	-0.1		
cib (GeneID 31359)	SID104198452	-0.3	-0.5	-0.6	-0.1
Glo1 (GeneID 35656)	SID104186449	-0.2	-0.6		
CG32022 (GeneID 317826)	SID104189470	-0.2	-0.2		
Gpdh1 (GeneID 33824)	SID104183128	-0.4	-0.7		
Fer3 (GeneID 41411)	SID104195925	-0.4	-0.4		
CG10317 (GeneID 41987)	SID104194021	-0.2	0		
CG10428 (GeneID 35150)	SID104181846	-0.4	-0.3		
CG15169 (GeneID 35161)	SID104182262	-0.3	-0.2		
Nrx-IV (GeneID 39387)	SID104191030	-0.2	-0.3		
Gen (GeneID 38594)	SID104189471	-0.3	-0.3		
CG2493 (GeneID 35316)	SID104182499	-0.1	-0.2		
Hpd (GeneID 40263)	SID104191462	-0.3	-0.3		
Gyg (GeneID 37419)	SID104183642	0.2	-0.3		
Gyg (GeneID 37419)	SID104184348	-0.3	-0.4		
CG8929 (GeneID 37306)	SID104187090	5.1	3.8		
Ccp84Ab (GeneID 40824)	SID104192379	-0.5	-1		
Rsph9 (GeneID 318950)	SID104181386	-0.1	-0.6		
CG8777 (GeneID 35921)	SID104187055	-0.4	0.1		
mthl3 (GeneID 36961)	SID104186789	-0.2	-0.2		
RabGGTa (GeneID 40617)	SID104191981	-0.4	-0.3		
CG7443 (GeneID 40992)	SID104196036	-0.4	-1.1		
Socs16D (GeneID 32760)	SID104199879	-0.1	-0.2		
CG30486 (GeneID 246645)	SID104186472	-0.3	-0.4		
CG4991 (GeneID 32695)	SID104199720	-0.3	-0.9		
CG30196 (GeneID 37595)	SID104183948	-0.2	-0.2		
CG15458 (GeneID 50124)	SID104200321	-0.2	0.1		
Srp54 (GeneID 34312)	SID104183234	1.3	2		
svr (GeneID 30998)	SID104197085	0	-0.2		
svr (GeneID 30998)	SID104198633	-0.1	0.4		
CG11109 (GeneID 40507)	SID104191425	-0.2	0		
Rad9 (GeneID 40054)	SID104191055	-0.4	-0.3		
retn (GeneID 45976)	SID104184471	-0.3	-0.4		
sotv + CG10731	SID104185722	-0.2	-0.4		
sotv + CG10731	SID104185789	-0.3	-0.3		
mRpL33 (GeneID 50381)	SID104198111	0.8	0.1		
CG14995 (GeneID 38487)	SID104188244	3.1	4.6		
CG34115 (GeneID 4379880)	SID104183632	1.5	-0.2		
CarT (GeneID 35334)	SID104182988	-0.2	-0.3		
clos (GeneID 5740204)	SID104186032	-0.3	-0.3		
clos (GeneID 5740204)	SID104186033	-0.3	-0.4		
clos (GeneID 5740204)	SID104186570	-0.3	0		
CG11099 (GeneID 37282)	SID104185826	-0.2	-0.1		
